Measured values taken from publication PMC7117550.
No constants are given. Whether binding was seen depends on the method and setting. In cells and extracts the contact can be indirect.

Protein sequences, listed by entry. Tags and fused reporters are not part of them. Residues count along the entry.
UniProt P04406: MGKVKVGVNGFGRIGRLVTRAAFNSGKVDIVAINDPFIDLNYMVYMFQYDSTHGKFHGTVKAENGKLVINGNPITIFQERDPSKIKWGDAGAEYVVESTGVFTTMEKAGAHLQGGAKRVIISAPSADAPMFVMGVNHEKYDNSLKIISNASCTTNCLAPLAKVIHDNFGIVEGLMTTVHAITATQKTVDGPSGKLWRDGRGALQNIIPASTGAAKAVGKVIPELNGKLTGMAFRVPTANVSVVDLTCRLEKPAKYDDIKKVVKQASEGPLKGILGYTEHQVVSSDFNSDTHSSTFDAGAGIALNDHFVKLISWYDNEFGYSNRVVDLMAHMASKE
UniProt Q06481, residues 32-763: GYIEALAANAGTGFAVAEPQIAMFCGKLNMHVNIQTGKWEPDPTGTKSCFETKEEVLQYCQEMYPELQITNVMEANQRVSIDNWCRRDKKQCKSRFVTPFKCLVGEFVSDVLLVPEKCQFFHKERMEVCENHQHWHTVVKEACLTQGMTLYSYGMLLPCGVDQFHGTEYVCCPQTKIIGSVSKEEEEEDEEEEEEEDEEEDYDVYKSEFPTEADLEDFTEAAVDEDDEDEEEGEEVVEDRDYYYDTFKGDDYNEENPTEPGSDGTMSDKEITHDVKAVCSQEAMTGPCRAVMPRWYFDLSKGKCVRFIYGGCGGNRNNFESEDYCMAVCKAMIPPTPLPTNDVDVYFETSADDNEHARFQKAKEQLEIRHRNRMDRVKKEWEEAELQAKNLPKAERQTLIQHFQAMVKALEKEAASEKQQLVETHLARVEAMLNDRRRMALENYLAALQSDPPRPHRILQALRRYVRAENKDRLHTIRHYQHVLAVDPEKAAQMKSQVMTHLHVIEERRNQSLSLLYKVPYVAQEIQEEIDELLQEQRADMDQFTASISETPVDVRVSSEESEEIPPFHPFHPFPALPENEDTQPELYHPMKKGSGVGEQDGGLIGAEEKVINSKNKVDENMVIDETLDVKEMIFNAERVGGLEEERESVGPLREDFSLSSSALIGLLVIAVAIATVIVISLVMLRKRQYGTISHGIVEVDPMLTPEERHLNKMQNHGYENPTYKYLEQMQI

Biological target: GAPDH (endogenous, OVCA420) (human (endogenous in OVCA420)) (UniProt P04406)
Assay: co-IP; endogenous proteins in OVCA420 lysate (25 mM Tris-HCl pH 7.4, 150 mM NaCl, 1 mM EDTA, 1% NP-40, 5% glycerol); IP with CLDN7 antibody or, as control, GAPDH antibody, Protein A and Protein G beads, 4°C; blot for APLP2

“Amyloid precursor-like protein 2 (endogenous, OVCA420) (from UniProt Q06481 32-763)” was tested, and the binding was “no binding”.
